# Laboratory results as given in PubChem BioAssay AID256 (DTP/NCI, 2004).
# The list does not hold the whole screen: it gathers tests that were run many times, whatever their T/C, doses with no T/C, and many T/C values between a quarter and a half above the control. Further doses and runs are listed elsewhere. T/C gives the treated animals as a percentage of the vehicle group. Some entries give survivors of the animals treated and no T/C: the source files T/C as zero there, which appears to mark a toxic dose or a test without result, not a measured value. Some survivor counts are full or nearly so, which does not show that the dose was tolerated: survival well below the control is almost never listed, so the zero probably covers shortened survival too. Survivors were counted at the toxicity check, usually on the fifth day, unless a day is given; later deaths do not show. Schedule codes are those of the source, read here as Q, the interval in days (D) or hours (H), X, the number of doses. Where survival is the endpoint, the PubChem record calls one and a half times the control and up active, and a quarter to a half above the control has no call in these data; cut-offs in other NCI protocols can differ.
# Test system: CD2F1 mice, L1210 leukemia ip, survival T/C
# Assay: NCI In Vivo Anticancer Drug Screen. Data for tumor model L1210 Leukemia (intraperitoneal) in CD2F1 (CDF1) mice
# Conditions: higher T/C = longer survival
# Procedure, shortened: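 Mice carrying a transplanted tumor received test compound or vehicle alone. The value is the measurement in the treated group divided by that in the vehicle-treated control group.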
# [1] = T/C endpoint: mean survival time, dose: 100.0 mg/kg/injection, schedule: Q04DX003 (ip), vehicle: saline with Tween-80
# [2] = T/C endpoint: mean survival time, dose: 200.0 mg/kg/injection, schedule: Q04DX003 (ip), vehicle: saline with Tween-80
# [3] = T/C endpoint: mean survival time, dose: 400.0 mg/kg/injection, schedule: Q04DX003 (ip), vehicle: saline with Tween-80
# [4] = T/C endpoint: mean survival time, dose: 100.0 mg/kg/injection, schedule: Q01DX009 (ip), vehicle: saline with Tween-80
# [5] = T/C endpoint: mean survival time, dose: 200.0 mg/kg/injection, schedule: Q01DX009 (ip), vehicle: saline with Tween-80
structure (smiles),measurement,setting,value
CC([NH-])CC(C)[NH-].O=C(O)C(=O)O.[Pt+2] (configuration not stated),T/C,"T/C endpoint: mean survival time, dose: 6.25 mg/kg/injection, schedule: Q04DX003 (ip), vehicle: saline with Tween-80",133 % of control
same,T/C,"T/C endpoint: mean survival time, dose: 6.25 mg/kg/injection, schedule: Q04DX003 (ip), vehicle: saline",130 % of control
O=c1[nH]cnc2c1cnn2CN1CCOCC1,survivor count,"T/C endpoint: median survival time, dose: 400.0 mg/kg/injection, schedule: Q01DX009 (ip), vehicle: Klucel (hydroxypropylcellulose) (HPC)",2 of 6
OC[CH2][Hg][Br],survivor count,"T/C endpoint: mean survival time, dose: 6.0 mg/kg/injection, schedule: Q01DX009 (ip), vehicle: saline",6 of 6
c1ccc(C(c2ccccc2)[n+]2ccccc2)cc1,survivor count,"T/C endpoint: mean survival time, dose: 20.0 mg/kg/injection, schedule: Q01DX009 (ip), vehicle: saline",0 of 6
same,survivor count,[1],0 of 6
same,survivor count,[2],0 of 6
same,survivor count,[3],0 of 6
Clc1ccc(C2c3ccccc3C[n+]3ccccc32)cc1 (configuration not stated),survivor count,"T/C endpoint: mean survival time, dose: 50.0 mg/kg/injection, schedule: Q04DX003 (ip), vehicle: Klucel (hydroxypropylcellulose) (HPC)",1 of 6
c1cc(C2CCOCC2)ccn1,survivor count,[4],6 of 6
same,survivor count,[5],0 of 6
same,survivor count,"T/C endpoint: mean survival time, dose: 400.0 mg/kg/injection, schedule: Q04DX003 (ip), vehicle: saline",0 of 6
Oc1ccc(Cl)cc1Sc1cc(Cl)ccc1O,survivor count,"T/C endpoint: mean survival time, dose: 200.0 mg/kg/injection, schedule: Q04DX003 (ip), vehicle: other",3 of 6
same,survivor count,"T/C endpoint: mean survival time, dose: 400.0 mg/kg/injection, schedule: Q04DX003 (ip), vehicle: other",4 of 6
O=C(Nc1ccc(C2=NCCN2)cc1)Nc1cccc(NC(=O)Nc2ccc(C3=NCCN3)cc2)c1,survivor count,"T/C endpoint: mean survival time, dose: 15.0 mg/kg/injection, schedule: Q01DX008 (iv), vehicle: other",0 of 7
O=c1[nH]c(=O)n(C2CC(O)C(CO)O2)cc1C(F)(F)F (configuration not stated),T/C,"T/C endpoint: mean survival time, dose: 32.0 mg/kg/injection, schedule: Q01DX009 (ip), vehicle: water",147 % of control
same,T/C,"T/C endpoint: mean survival time, dose: 32.0 mg/kg/injection, schedule: Q03HX008 (ip), vehicle: water",128 % of control
same,T/C,"T/C endpoint: mean survival time, dose: 32.0 mg/kg/injection, schedule: Q03HX016 (ip), vehicle: water",129 % of control
same,T/C,"T/C endpoint: mean survival time, dose: 32.0 mg/kg/injection, schedule: Q03HX024 (ip), vehicle: water",142 % of control
same,T/C,"T/C endpoint: mean survival time, dose: 64.0 mg/kg/injection, schedule: Q03HX008 (ip), vehicle: water",125 % of control
same,T/C,"T/C endpoint: mean survival time, dose: 64.0 mg/kg/injection, schedule: Q03HX016 (ip), vehicle: water",145 % of control
same,T/C,"T/C endpoint: mean survival time, dose: 64.0 mg/kg/injection, schedule: Q03HX024 (ip), vehicle: water",148 % of control
same,T/C,"T/C endpoint: mean survival time, dose: 128.0 mg/kg/injection, schedule: Q01DX009 (ip), vehicle: water",140 % of control
same,T/C,"T/C endpoint: mean survival time, dose: 128.0 mg/kg/injection, schedule: Q03HX008 (ip), vehicle: water",142 % of control
same,T/C,"T/C endpoint: mean survival time, dose: 512.0 mg/kg/injection, schedule: Q04DX003 (ip), vehicle: water",130 % of control
same,T/C,"T/C endpoint: mean survival time, dose: 1024.0 mg/kg/injection, schedule: Q01DX001 (ip), vehicle: water",128 % of control
same,T/C,"T/C endpoint: mean survival time, dose: 1024.0 mg/kg/injection, schedule: Q04DX003 (ip), vehicle: water",145 % of control
O=C1CC2CCCCN2C2=C1CCCC2 (configuration not stated),survivor count,"T/C endpoint: mean survival time, dose: 200.0 mg/kg/injection, schedule: Q04DX003 (ip), vehicle: acetone",6 of 6
same,survivor count,"T/C endpoint: mean survival time, dose: 400.0 mg/kg/injection, schedule: Q04DX003 (ip), vehicle: acetone",0 of 6
O=C1C=CC(=O)N1c1ccc(Br)cc1Cl,survivor count,[4],0 of 6
same,survivor count,[1],0 of 6
same,survivor count,[5],0 of 6
same,survivor count,[2],0 of 6
same,survivor count,"T/C endpoint: mean survival time, dose: 400.0 mg/kg/injection, schedule: Q01DX009 (ip), vehicle: saline with Tween-80",0 of 6
same,survivor count,[3],0 of 6
COc1cccc2c1C(=O)c1c(O)c3c(c(O)c1C2=O)C[C@@](O)(C(=O)COC(=O)Cc1ccccc1)C[C@@H]3OC1CC(N)C(O)C(C)O1 (some centres not stated),T/C,"T/C endpoint: mean survival time, dose: 0.5 mg/kg/injection, schedule: Q01DX009 (ip), vehicle: saline with Tween-80",138 % of control
same,T/C,"T/C endpoint: mean survival time, dose: 1.0 mg/kg/injection, schedule: Q01DX009 (ip), vehicle: saline with Tween-80, evaluated on day 20",146 % of control
same,T/C,"T/C endpoint: mean survival time, dose: 1.0 mg/kg/injection, schedule: Q01DX009 (ip), vehicle: saline with Tween-80, evaluated on day 60",134 % of control
same,T/C,"T/C endpoint: mean survival time, dose: 2.0 mg/kg/injection, schedule: Q01DX009 (ip), vehicle: saline with Tween-80, evaluated on day 20",146 % of control
same,T/C,"T/C endpoint: mean survival time, dose: 2.0 mg/kg/injection, schedule: Q01DX009 (ip), vehicle: saline with Tween-80, evaluated on day 60",148 % of control
same,T/C,"T/C endpoint: mean survival time, dose: 2.5 mg/kg/injection, schedule: Q01DX001 (ip), vehicle: saline with Tween-80",129 % of control
same,T/C,"T/C endpoint: mean survival time, dose: 2.5 mg/kg/injection, schedule: Q04DX003 (ip), vehicle: saline with Tween-80",135 % of control
same,T/C,"T/C endpoint: mean survival time, dose: 4.0 mg/kg/injection, schedule: Q01DX009 (ip), vehicle: saline with Tween-80",143 % of control
same,T/C,"T/C endpoint: mean survival time, dose: 5.0 mg/kg/injection, schedule: Q01DX001 (ip), vehicle: saline with Tween-80",131 % of control
same,T/C,"T/C endpoint: mean survival time, dose: 5.0 mg/kg/injection, schedule: Q04DX003 (ip), vehicle: saline with Tween-80",140 % of control
same,T/C,"T/C endpoint: mean survival time, dose: 10.0 mg/kg/injection, schedule: Q01DX001 (ip), vehicle: saline with Tween-80",134 % of control
same,survivor count,"T/C endpoint: mean survival time, dose: 16.0 mg/kg/injection, schedule: Q01DX009 (ip), vehicle: saline with Tween-80",9 of 10
same,survivor count,"T/C endpoint: mean survival time, dose: 40.0 mg/kg/injection, schedule: Q01DX001 (ip), vehicle: saline with Tween-80",4 of 10
same,survivor count,"T/C endpoint: mean survival time, dose: 40.0 mg/kg/injection, schedule: Q04DX003 (ip), vehicle: saline with Tween-80",10 of 10
Cc1cc([N+](=O)[O-])c(S(N)(=O)=O)c([N+](=O)[O-])c1,survivor count,"T/C endpoint: mean survival time, dose: 100.0 mg/kg/injection, schedule: Q01DX009 (ip), vehicle: Klucel (hydroxypropylcellulose) (HPC)",6 of 6
same,survivor count,"T/C endpoint: mean survival time, dose: 200.0 mg/kg/injection, schedule: Q01DX009 (ip), vehicle: Klucel (hydroxypropylcellulose) (HPC)",3 of 6
same,survivor count,"T/C endpoint: mean survival time, dose: 400.0 mg/kg/injection, schedule: Q01DX009 (ip), vehicle: Klucel (hydroxypropylcellulose) (HPC)",0 of 6
